Reference: paper PMC8802317
These are yes or no findings as the source states them, for the method shown. In cells and extracts the contact can be indirect. Some results given as binding are weak or reduced against the parent protein; the word gives no strength.

Chains of the proteins cited; added tags and fusions are not shown.
UniProt Q13555: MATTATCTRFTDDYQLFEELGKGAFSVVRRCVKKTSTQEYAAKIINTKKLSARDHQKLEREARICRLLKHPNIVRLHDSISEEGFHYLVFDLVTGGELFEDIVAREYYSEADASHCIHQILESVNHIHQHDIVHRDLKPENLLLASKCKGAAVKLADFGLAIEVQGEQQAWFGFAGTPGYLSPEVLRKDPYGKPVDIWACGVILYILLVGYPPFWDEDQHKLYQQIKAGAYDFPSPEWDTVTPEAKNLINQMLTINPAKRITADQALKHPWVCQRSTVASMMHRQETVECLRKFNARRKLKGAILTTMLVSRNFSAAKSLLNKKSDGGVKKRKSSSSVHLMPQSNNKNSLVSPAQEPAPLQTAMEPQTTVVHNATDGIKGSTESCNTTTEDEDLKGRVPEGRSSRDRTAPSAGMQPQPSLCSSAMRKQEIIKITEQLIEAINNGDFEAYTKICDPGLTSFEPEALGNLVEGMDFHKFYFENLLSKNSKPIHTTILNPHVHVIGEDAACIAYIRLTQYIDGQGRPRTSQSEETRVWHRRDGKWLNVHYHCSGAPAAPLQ
UniProt Q13153: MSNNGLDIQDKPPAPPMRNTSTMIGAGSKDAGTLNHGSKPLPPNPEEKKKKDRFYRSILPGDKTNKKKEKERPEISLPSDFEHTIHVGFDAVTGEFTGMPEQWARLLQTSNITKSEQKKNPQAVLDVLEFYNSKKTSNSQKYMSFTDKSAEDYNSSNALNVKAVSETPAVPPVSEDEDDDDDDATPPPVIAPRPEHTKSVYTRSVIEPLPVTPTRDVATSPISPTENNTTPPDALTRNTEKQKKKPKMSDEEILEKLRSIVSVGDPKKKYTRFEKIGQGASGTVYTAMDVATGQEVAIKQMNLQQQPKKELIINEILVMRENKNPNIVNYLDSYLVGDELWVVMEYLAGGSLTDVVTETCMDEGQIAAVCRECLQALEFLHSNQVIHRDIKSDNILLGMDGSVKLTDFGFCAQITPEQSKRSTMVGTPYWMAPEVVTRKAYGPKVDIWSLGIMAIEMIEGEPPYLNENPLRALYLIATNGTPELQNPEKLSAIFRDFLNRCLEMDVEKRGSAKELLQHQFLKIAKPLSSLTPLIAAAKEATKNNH

Target: GFP-tagged CaMKIIγ (Calcium/Calmodulin-dependent Protein Kinase II gamma) (UniProt Q13555)
Assay: co-IP; HEK293T cells co-transfected with myc-Pak1 and GFP-CaMKII; lysis in PBSCM buffer (100 mM Na2PO4, 150 mM NaCl, pH 7.2, 1 mM CaCl2, 1 mM MgCl2, 5 µM ATP); IP with anti-GFP (reciprocal: anti-myc) for 4 h at 4°C, Protein G Sepharose; immunoblot

## myc-tagged Pak1 (p21-activated kinase 1) (from UniProt Q13153 1-545)
  binding: binds
